Consider 2 substances from article PMC3146489.

No constants are given. Whether binding was seen depends on the method and setting. For some assays here: In cells and extracts the contact can be indirect. Some binding calls cover weakened binding; strength is not graded here.

One assay addresses FLAG-p53 (UniProt P04637). Kind of assay: co-IP; HEK 293 cells co-transfected, with or without 10 µM BMH crosslinker for 10 min at room temperature before lysis; anti-FLAG affinity gel overnight at 4°C; IP buffer 50 mM Tris-HCl pH 7.0, 150 mM NaCl, 0.5 mM DTT, 1% NP-40; Western with Myc or FLAG antibodies.
Assay [1] has as its target T1, Gal4-DBD-PR-Set7 N-terminal(1-191) bait (human) (UniProt Q9NQR1).
T1 sequence: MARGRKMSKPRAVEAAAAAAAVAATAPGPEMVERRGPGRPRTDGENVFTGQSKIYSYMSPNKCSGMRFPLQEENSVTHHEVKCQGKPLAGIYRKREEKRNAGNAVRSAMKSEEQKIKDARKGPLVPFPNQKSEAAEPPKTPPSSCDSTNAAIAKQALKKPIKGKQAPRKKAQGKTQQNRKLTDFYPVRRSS
Put plainly: two-hybrid; … GAL4 Two-Hybrid System 3; Gal4-DBD-PR-Set7 baits and pGADT7-AD-UBC9 co-transformed into AH109 yeast; growth on TDO and QDO + X-alpha-Gal (HIS3, ADE2, lacZ/MEL1 reporters).

Turning to “Myc-tagged UBC9 (from UniProt P63279 1-158) (enzyme)”, the binding result with FLAG-p53 was “binds”.

As to “pGADT7-AD-UBC9 (first 126 amino acids of human UBC9, clone recovered from the screen) (from UniProt P63279 1-126) (domain or fragment)”, in assay [1], the binding result is reported as “binds”.
